The target in test [1] is Mbd2 (overexpressed in HEK293T cells) (Homo sapiens (Human)) (UniProt Q9UBB5). In words: co-IP with anti-Flag from HEK293T lysates co-transfected with MBD2, immunoblot. (In western blotting, separated proteins are transferred to a membrane and probed.)
In test [2] the target is Mbd3 (untagged, overexpressed in HEK293T cells) (Homo sapiens (Human)) (UniProt O95983). Put plainly: co-IP with anti-Flag from HEK293T lysates, immunoblot anti-Mbd3.
Test [3] shares this target. In words: co-IP with anti-Flag from HEK293T lysates co-transfected with MBD3, immunoblot.
The target is the same in test [4]. In words: co-IP after overexpression in HEK293 cells.
Test [5] shares this target. Put plainly: co-IP after overexpression in 293HEK cells.

The chains behind the UniProt entries cited, without tags or fusion partners. Where a name states a change or a piece, a line headed by the entry shows the natural chain unless it says otherwise.
UniProt Q9UBB5: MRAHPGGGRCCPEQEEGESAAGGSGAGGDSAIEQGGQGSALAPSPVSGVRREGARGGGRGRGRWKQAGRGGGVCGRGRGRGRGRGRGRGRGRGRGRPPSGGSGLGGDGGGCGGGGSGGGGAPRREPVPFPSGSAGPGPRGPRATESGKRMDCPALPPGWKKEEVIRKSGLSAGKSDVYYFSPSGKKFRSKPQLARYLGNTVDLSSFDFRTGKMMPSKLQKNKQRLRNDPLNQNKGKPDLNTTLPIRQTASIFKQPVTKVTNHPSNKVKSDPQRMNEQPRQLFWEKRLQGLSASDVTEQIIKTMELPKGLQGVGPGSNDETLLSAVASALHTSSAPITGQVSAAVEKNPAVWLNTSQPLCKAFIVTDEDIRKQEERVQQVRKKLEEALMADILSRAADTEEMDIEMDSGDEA
UniProt O95983: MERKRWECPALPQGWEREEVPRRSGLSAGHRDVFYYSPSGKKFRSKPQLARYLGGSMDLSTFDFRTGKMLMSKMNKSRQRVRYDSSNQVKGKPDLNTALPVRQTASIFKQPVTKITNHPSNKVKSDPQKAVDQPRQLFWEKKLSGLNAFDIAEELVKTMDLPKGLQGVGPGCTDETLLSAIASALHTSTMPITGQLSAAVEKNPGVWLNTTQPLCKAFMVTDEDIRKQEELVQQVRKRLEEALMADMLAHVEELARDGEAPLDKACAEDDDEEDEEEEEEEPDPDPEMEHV
UniProt Q13547: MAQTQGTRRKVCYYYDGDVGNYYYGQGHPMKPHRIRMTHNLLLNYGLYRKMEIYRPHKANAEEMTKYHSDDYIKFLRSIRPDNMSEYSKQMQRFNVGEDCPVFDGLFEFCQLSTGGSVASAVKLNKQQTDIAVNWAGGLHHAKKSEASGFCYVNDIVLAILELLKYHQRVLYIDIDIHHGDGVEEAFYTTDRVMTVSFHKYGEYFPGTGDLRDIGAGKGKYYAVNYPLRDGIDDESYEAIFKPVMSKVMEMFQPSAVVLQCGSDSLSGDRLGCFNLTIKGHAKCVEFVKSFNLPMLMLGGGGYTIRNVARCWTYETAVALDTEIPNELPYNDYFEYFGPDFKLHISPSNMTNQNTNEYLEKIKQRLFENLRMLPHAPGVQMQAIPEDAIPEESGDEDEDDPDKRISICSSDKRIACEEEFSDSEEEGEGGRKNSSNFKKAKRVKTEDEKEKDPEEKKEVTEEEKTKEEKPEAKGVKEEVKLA
UniProt O43474: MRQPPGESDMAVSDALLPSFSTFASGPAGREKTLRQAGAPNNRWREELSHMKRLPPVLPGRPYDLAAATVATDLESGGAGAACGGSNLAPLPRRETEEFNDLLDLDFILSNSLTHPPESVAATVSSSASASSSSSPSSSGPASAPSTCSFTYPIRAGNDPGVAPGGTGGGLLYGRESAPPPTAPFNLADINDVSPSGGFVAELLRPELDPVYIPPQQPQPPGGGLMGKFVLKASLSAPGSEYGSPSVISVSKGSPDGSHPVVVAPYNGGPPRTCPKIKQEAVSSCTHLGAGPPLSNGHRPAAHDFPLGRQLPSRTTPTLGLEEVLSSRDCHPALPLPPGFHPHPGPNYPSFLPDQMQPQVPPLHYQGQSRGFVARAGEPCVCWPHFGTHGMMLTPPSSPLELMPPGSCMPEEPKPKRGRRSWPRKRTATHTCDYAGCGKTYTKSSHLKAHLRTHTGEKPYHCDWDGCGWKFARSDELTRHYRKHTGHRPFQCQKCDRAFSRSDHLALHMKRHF
UniProt Q01860: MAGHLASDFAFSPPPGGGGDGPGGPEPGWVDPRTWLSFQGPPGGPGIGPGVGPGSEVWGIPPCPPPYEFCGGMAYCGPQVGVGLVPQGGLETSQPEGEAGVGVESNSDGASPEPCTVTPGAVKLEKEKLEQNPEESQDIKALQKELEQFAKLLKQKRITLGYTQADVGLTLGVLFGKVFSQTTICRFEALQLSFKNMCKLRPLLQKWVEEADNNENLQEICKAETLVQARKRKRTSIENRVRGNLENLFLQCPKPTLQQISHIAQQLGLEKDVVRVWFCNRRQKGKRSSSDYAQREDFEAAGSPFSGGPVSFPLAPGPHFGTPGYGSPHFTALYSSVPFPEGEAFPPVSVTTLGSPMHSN
UniProt P48431: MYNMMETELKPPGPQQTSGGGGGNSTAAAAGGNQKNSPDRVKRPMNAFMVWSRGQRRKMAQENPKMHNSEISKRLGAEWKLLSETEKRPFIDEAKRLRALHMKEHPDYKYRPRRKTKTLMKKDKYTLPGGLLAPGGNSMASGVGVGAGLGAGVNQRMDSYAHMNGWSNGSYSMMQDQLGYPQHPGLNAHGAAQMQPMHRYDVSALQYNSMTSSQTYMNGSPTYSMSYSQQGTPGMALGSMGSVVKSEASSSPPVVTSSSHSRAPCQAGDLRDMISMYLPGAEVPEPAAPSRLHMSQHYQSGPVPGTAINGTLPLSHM
UniProt P01106: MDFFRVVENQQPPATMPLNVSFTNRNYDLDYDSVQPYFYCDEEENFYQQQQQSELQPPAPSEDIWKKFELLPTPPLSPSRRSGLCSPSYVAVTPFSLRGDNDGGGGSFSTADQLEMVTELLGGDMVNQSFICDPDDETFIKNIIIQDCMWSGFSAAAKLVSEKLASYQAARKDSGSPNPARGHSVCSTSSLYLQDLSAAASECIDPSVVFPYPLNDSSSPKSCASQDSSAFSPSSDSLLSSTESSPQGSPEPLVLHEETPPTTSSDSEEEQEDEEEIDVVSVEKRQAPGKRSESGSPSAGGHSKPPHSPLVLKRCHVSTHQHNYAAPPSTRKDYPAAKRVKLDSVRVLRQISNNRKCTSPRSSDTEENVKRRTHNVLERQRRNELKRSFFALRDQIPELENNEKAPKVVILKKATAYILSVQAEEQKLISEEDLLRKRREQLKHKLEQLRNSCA

These are yes or no findings as the source states them, for the method shown. Binding seen in cells or lysates may run through a third protein. Some entries that bind do so weakly or less than the wild type.

The source of these data is patent US20210253998A1 (published 2021).

Consider “Flag-tagged HDAC1 (from UniProt Q13547 1-482) (enzyme)”, for which the binding result in test [1], in test [2] and in test [3] was “binds” each time.
With “Flag-tagged KLF4 (from UniProt O43474 1-513)”, the binding entry in test [4], in test [5] and in test [2] was “binds” each time.
In the case of “Flag-tagged OCT4 (from UniProt Q01860 1-360)”, the binding entry in test [4], in test [5] and in test [2] was “binds” each time.
Turning to “Flag-tagged SOX2 (from UniProt P48431 1-317)”, the binding result in test [4], in test [5] and in test [2] was “binds” in each case.
Regarding “Flag-tagged c-MYC (from UniProt P01106 1-454)”, the binding entry in test [4] and in test [2] was “binds” each time.
